Some of these results come from one statement about several compounds together. At least one compound was matched to its structure with a doubt left.
test system: cancer cells; assay: Matrigel chemoinvasion assay in Boyden chambers; assay type: cell-based

SMILES | concentration at which active in the Boyden chamber chemoinvasion assay [µM]
CC(C)CC(NC(=O)P(=O)(O)O)C(=O)NC(Cc1ccccc1)C(=O)NCCc1ccccc1 (stereo not drawn) [phosphonoformyl-Leu-Phe-phenethylamide] | ≤ 1
CNC(=O)C(NC(=O)C(Cc1ccccc1)NC(=O)P(=O)(O)O)C(C)C (stereo not drawn) [Example 21, Phosphonoformyl-Phe-Val-CONHMe] | ≤ 1
CNC(=O)[C@H](Cc1ccc(OC)cc1)NC(=O)[C@H](CC(C)C)NC(=O)P(=O)(O)O [Example 20, Phosphonoformyl-Leu-Tyr(Me)-NHMe] | ≤ 1
CNC(=O)[C@@H](NC(=O)[C@H](CC(C)C)NC(=O)P(=O)(O)O)C(C)C [Example 18, Phosphonoformyl-Leu-Val-NHMe] | ≤ 1
